Measurements reported in PubChem BioAssay AID504808 (Drosophila RNAi Screening Center, 2011)

Purpose: 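Genes whose loss lifts activity of an E2F-responsive reporter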 (primary screen)
System: Drosophila S2 cells
Knock-down reagent: long dsRNA against Drosophila genes
Read-out: 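Dual luciferase plate measurements; E2F-specific signal taken as firefly over Renilla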
Reading the numbers: E2F firefly: higher = more E2F reporter activity; Renilla normaliser: higher = more normaliser reporter signal
Call rule: 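a knock-down counted as active when the firefly/Renilla E2F signal rose above 50%, a threshold chosen arbitrarily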
In all, the deposit lists about 21,000 reagents; this is a random part of those that have a named target and a result. In the full data, 18 (0.084%) are marked active. 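Raw counts without plate normalisation, one of two replicates; the ratio scores behind the calls were not deposited.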 Unmarked entries are inactive. Reagent sequences are not shown. Not stated in the record: the amount of reagent, the time to read-out.

| Target gene | dsRNA | E2F firefly, rep 1 | Renilla normaliser, rep 1 |
| --- | --- | --- | --- |
| aux (auxilin) | DRSC12161 | 78618 | 3843 |
| S2P (site-2 protease) | DRSC07311 | 94590 | 4143 |
| CG7848 | DRSC07050 | 1.39e5 | 5032 |
| NijA (Ninjurin A) | DRSC10637 | 1.28e5 | 7195 |
| tous (testes of unusual size) | DRSC04464 | 82512 | 3363 |
| CG11906 | DRSC06096 | 1.53e5 | 4874 |
| Srp9 (Signal recognition particle 9) | DRSC10973 | 98767 | 3938 |
| RpS28b (Ribosomal protein S28b) | DRSC18258 | 5675 | 980 |
| CG14757 | DRSC06492 | 1.35e5 | 5244 |
| CG4462 | DRSC15583 | 68309 | 3609 |
| Stim (Stromal interaction molecule) | DRSC20158 | 8478 | 768 |
| eya (eyes absent) | DRSC03510 | 82856 | 3649 |
| phyl (phyllopod) | DRSC07663 | 94153 | 3861 |
| Obp99d (Odorant-binding protein 99d) | DRSC15046 | 1.24e5 | 6788 |
| CG2145 | DRSC19835 | 7818 | 832 |
| CG4318 | DRSC19887 | 1.36e5 | 6333 |
| Grx3 (Glutaredoxin 3) | DRSC02966 | 87688 | 3512 |
| CG17075 | DRSC00483 | 84324 | 4082 |
| Sgs1 (Salivary gland secretion 1) | DRSC00787 | 1.46e5 | 5987 |
| Sgs1 (Salivary gland secretion 1) | DRSC00848 | 1.36e5 | 5240 |
| Eig71Ei | DRSC11156 | 1.62e5 | 7553 |
| lin (lines) | DRSC07644 | 1.38e5 | 4860 |
| CG11951 | DRSC14442 | 1.42e5 | 6533 |
| sut2 (sugar transporter 2) | DRSC07701 | 2818 | 181 |
| Cpr92A (Cuticular protein 92A) | DRSC16000 | 1.32e5 | 7316 |
| mim (missing-in-metastasis) | DRSC05013 | 1.05e5 | 3588 |
| kl-5 (retired record) | DRSC20707 | 1.42e5 | 6552 |
| kl-5 (retired record) | DRSC20736 | 83190 | 3179 |
| kl-5 (retired record) | DRSC20773 | 79121 | 2743 |
| kl-5 (retired record) | DRSC21161 | 73644 | 8293 |
| CG13300 | DRSC09974 | 96126 | 3822 |
| Cep290 (Centrosomal protein 290kDa) | DRSC08359 | 91516 | 3871 |
| fusl (fuseless) | DRSC02351 | 69293 | 3434 |
| CG5021 | DRSC10469 | 92383 | 3830 |
| CG12111 | DRSC17808 | 1.22e5 | 5526 |
| Pus7 (Pseudouridine synthase 7) | DRSC10703 | 86962 | 3682 |
| ppk12 (pickpocket 12) | DRSC04086 | 1.01e5 | 4720 |
| CG14096 | DRSC10099 | 1.51e5 | 7701 |
| CG4213 | DRSC00641 | 1.56e5 | 5400 |
| Srr (Serine racemase) | DRSC16382 | 1.22e5 | 5497 |
| Pyroxd1 (Pyridine nucleotide-disulfide oxidoreductase domain 1) | DRSC02098 | 95761 | 3775 |
| CG3795 | DRSC18593 | 1832 | 1040 |
| beat-IIb (beaten path IIb) | DRSC13219 | 71447 | 1901 |
| beat-IIb (beaten path IIb) | DRSC14816 | 1.07e5 | 6922 |
| beat-IIb (beaten path IIb) | DRSC15546 | 1.17e5 | 5771 |
| CG3663 | DRSC04402 | 83525 | 3629 |
| CG14805 | DRSC18554 | 1.19e5 | 6366 |
| CG6418 | DRSC10633 | 62420 | 3092 |
| Or67a (Odorant receptor 67a) | DRSC11240 | 1.30e5 | 7376 |
| dec (defective chorion) | DRSC18759 | 1.14e5 | 5673 |
| CG9386 | DRSC16485 | 1.21e5 | 5810 |
| CG15539 | DRSC15075 | 1.04e5 | 6814 |
| CG11980 | DRSC14456 | 69430 | 3475 |
| Vps37B (Vacuolar protein sorting 37B) | DRSC12165 | 74675 | 3538 |
| wwk (white walker) | DRSC01941 | 1.03e5 | 3533 |
| CG18404 | DRSC15323 | 1.40e5 | 6741 |
| mei-9 (meiotic 9) | DRSC18792 | 97666 | 5267 |
| CG14053 | DRSC17908 | 1.19e5 | 6371 |
| CG13064 | DRSC09947 | 1.43e5 | 6798 |
| Tbh (Tyramine beta hydroxylase) | DRSC18723 | 56731 | 4306 |
| CG18418 | DRSC08535 | 75957 | 3933 |
| PH4alphaSG2 (prolyl-4-hydroxylase-alpha SG2) | DRSC15037 | 1.18e5 | 6170 |
| CG6280 | DRSC06972 | 1.11e5 | 4317 |
| CG9117 | DRSC03141 | 1.44e5 | 4540 |
| CG4660 | DRSC18378 | 1.11e5 | 5648 |
| senju | DRSC02366 | 1.44e5 | 5153 |
| Lip1 (Lipase 1) | DRSC03364 | 1.49e5 | 5575 |
| CG15048 (retired record) | DRSC19624 | 1.51e5 | 6110 |
| Rsph9 (Radial spoke head protein 9) | DRSC01594 | 1.31e5 | 5499 |
| mldr (mulder) | DRSC18100 | 97937 | 5081 |
| CG13965 | DRSC02307 | 1.00e5 | 4134 |
| CG13077 | DRSC02181 | 1.08e5 | 4045 |
| Paris (Parkin Interacting Substrate) | DRSC00451 | 89338 | 3689 |
| CG4332 | DRSC19890 | 8745 | 808 |
| Chd64 | DRSC08649 | 69745 | 4321 |
| GATAe | DRSC14223 | 55949 | 3024 |
| CG11997 | DRSC14464 | 1.45e5 | 6213 |
| CG18577 | DRSC15352 | 1.47e5 | 6804 |
| mRpS33 (mitochondrial ribosomal protein S33) | DRSC14239 | 92203 | 4350 |
| Chd1 (Chromodomain-helicase-DNA-binding protein 1) | DRSC00745 | 81741 | 3746 |
| fry (furry) | DRSC08993 | 1.30e5 | 4748 |
| fry (furry) | DRSC10172 | 1.16e5 | 5844 |
| fry (furry) | DRSC10709 | 1.13e5 | 6355 |
| fry (furry) | DRSC10712 | 73057 | 3427 |
